This is one part of the list. Shown are side measurements of this screen, not its main read-out; they come without a call. Compounds called inactive in the main read-out are mostly missing here. Words in brackets tell the shape of the fitted curve; partial curves, single points and poor fits give uncertain potencies.
Experiment: qHTS Assay to Find Inhibitors of Chronic Active B-Cell Receptor Signaling
Conditions: ABC-DLBCL IkBa-CBG/CBR reporter, luminescence ratio (green luciferase fused to IkBa over red control in TMD8 lymphoma cells), 4 h
Procedure, shortened: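 Doxycycline induced both beetle luciferases in TMD8 lymphoma cells; IKK-driven degradation limits the IkappaBalpha-fused green signal, while red luminescence normalises for cell number and nonspecific effects. Compounds tested up to 46 uM, 4 hrs.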

[1] = measured here: CBR red luminescence, cell number
[2] = measured here: IkBa-CBG green luminescence

Row | Structure (SMILES) | AC50 [1] | AC50 [2]
1 | Fc1ccccc1COc1ccc(/C=N/NC(=S)NCc2ccccc2)cc1 | 20.6 µM [rising, partial curve, poor fit] | 
2 | CCNC(=S)NNC(=O)c1cc(-c2cccc(OC)c2)nc2ccccc12 | 18.4 µM [falling, partial curve] | 
3 | C[C@@]12C(=O)Nc3ccc(Br)cc3C(=O)N1[C@H]1c3ccccc3OC[C@@H]1[C@@H]2c1ccccc1 | 20.6 µM [falling, single point] | 3.26 µM [rising, full curve, poor fit]
4 | Cc1cc(C(=O)Nc2cccc(-c3ccc(N4CCOCC4)nn3)c2)ccc1[N+](=O)[O-] | 25.9 µM [falling, single point] | 
5 | N/C(=N\NS(=O)(=O)c1cc(C(F)(F)F)cc(C(F)(F)F)c1)c1ccccn1 | 20 µM [rising, single point] | 
6 | CCCCCCNC(=O)c1cc(-c2ccco2)nc2ccccc12 |  | 20.6 µM [rising, partial curve, poor fit]
7 | COc1ccc(OC)c(/C=N/NC(=O)CCCC(=O)Nc2cccc(Br)c2)c1 | 22.4 µM [falling, single point] | 
8 | COCCNC(=O)c1onc(CSc2cc(C)cc(C)c2)c1C(=O)O | 31.6 µM [falling, single point] | 
9 | Cc1c(-c2ccccc2)[n+](=O)c(-c2ccco2)c(C)n1[O-] | 6.51 µM [falling, single point] | 6.51 µM [rising, partial curve, poor fit]
10 | CC(=O)c1ccc(N2CCC(c3cc(-c4ccc(Cl)cc4Cl)n[nH]3)CC2)c([N+](=O)[O-])c1 | 11.2 µM [falling, partial curve, poor fit] | 11.2 µM [rising, partial curve, poor fit]
11 | CN(C)c1ccc(/C=C2\SC(=O)N(CCc3nnc(N)s3)C2=O)cc1 | 2.82 µM [falling, partial curve] | 
12 | O=c1cc(CSc2nnnn2-c2ccccc2)nc(Nc2ccc(F)cc2)[nH]1 | 0.291 µM [rising, full curve, poor fit] | 
13 | O=C(COc1ccc(Br)cc1)Nc1ccc(S(=O)(=O)Nc2ccccn2)cc1 | 35.5 µM [falling, single point] | 
14 | COc1ccc(C2=NOC(CNC(N)=S)C2)cc1 (stereo not drawn) | 35.5 µM [falling, single point] | 
15 | N#Cc1ccc(NC(=O)c2cccs2)nc1 | 15.8 µM [falling, single point] | 
16 | O=C(Nc1ccc(Cl)c(Cl)c1)Nc1ccccc1O | 5.01 µM [falling, full curve] | 
17 | CCOc1ccc(CCNC(=O)c2ccc(CSCc3ccccc3C)o2)cc1OCC | 11.2 µM [falling, single point] | 
18 | Cc1ccc(C(=O)OCc2nc(N)nc(Nc3ccccc3C)n2)cc1 |  | 29.1 µM [falling, partial curve, poor fit]
19 | COc1cc(OC)c2c(c1)OC(c1ccc(OC)c(OC)c1)C(O)C2=O (stereo not drawn) | 5.8 µM [rising, full curve, poor fit] | 
20 | COCC(=O)Nc1ccc(N(C)C)cc1 | 3.66 µM [rising, partial curve, poor fit] | 
21 | COc1ccc(-c2cc(C(F)(F)F)n3nc(C(=O)NCc4ccco4)cc3n2)cc1 |  | 12.6 µM [falling, partial curve, poor fit]

Five structures from above, ordered by molar mass, falling.
Row | Structure (SMILES) | AC50 [1] | AC50 [2]
17 | CCOc1ccc(CCNC(=O)c2ccc(CSCc3ccccc3C)o2)cc1OCC | 11.2 µM [falling, single point] | 
21 | COc1ccc(-c2cc(C(F)(F)F)n3nc(C(=O)NCc4ccco4)cc3n2)cc1 |  | 12.6 µM [falling, partial curve, poor fit]
1 | Fc1ccccc1COc1ccc(/C=N/NC(=S)NCc2ccccc2)cc1 | 20.6 µM [rising, partial curve, poor fit] | 
6 | CCCCCCNC(=O)c1cc(-c2ccco2)nc2ccccc12 |  | 20.6 µM [rising, partial curve, poor fit]
14 | COc1ccc(C2=NOC(CNC(N)=S)C2)cc1 (stereo not drawn) | 35.5 µM [falling, single point] | 

(next part)

Row | Structure (SMILES) | AC50 [1] | AC50 [2]
22 | C[C@@H](C(=O)NCCc1ccc(F)cc1)N1C(=O)N2CCc3c([nH]c4ccccc34)[C@@]2(C)C1=O | 35.5 µM [falling, single point] | 
23 | COc1ccccc1N1C(=O)c2ccc(C(=O)Nc3ccccc3O)cc2C1=O | 25.1 µM [falling, single point] | 
24 | O=C(Nc1ccc(Cl)cc1)Nc1nnc(SCc2ccccc2)s1 | 0.82 µM [rising, full curve, poor fit] | 
25 | Cn1cccc1-c1cc(C(=O)N/N=C/c2ccccc2Cl)[nH]n1 | 8.91 µM [falling, partial curve, poor fit] | 
26 | O=C(NNc1ncccc1-n1cccc1)c1ccc(Cl)cc1 | 10 µM [rising, partial curve, poor fit] | 
27 | COc1ccc2cc(-c3ccccc3)c(=O)oc2c1 | 8.91 µM [falling, partial curve, poor fit] | 
28 | Cc1ccccc1CN1C(=O)c2ccccc2S(=O)c2ccc(C(=O)NCCCN3CCOCC3)cc21 (stereo not drawn) | 14.1 µM [falling, single point] | 
29 | CC1CCCC(NC(=O)CSC2CCCCC2)C1C (stereo not drawn) | 0.398 µM [falling, partial curve, poor fit] | 
30 | C=CC(=O)Nc1cccc(Oc2cc(Cl)nc3[nH]ccc23)c1 | 11.6 µM [falling, partial curve, poor fit] | 
31 | CCCC1=Nc2cc(C(=O)NC3CCCCC3)ccc2Sc2ccc(C)cc21 | 1.41 µM [rising, full curve, poor fit] | 1.26 µM [falling, full curve]
32 | COc1ccc(NC(=O)Cn2c(-c3ccc(F)cc3)cc(C(C)=O)c2C)c(OC)c1 | 6.31 µM [rising, single point] | 
33 | CN(C)S(=O)(=O)c1cccc(NC(=O)c2ccc(COc3ccccc3)cc2)c1 | 35.5 µM [falling, single point] | 
34 | O=[N+]([O-])c1cc(/C=N/Nc2nc3ccccc3[nH]2)c(O)cc1O | 0.366 µM [falling, full curve] | 
35 | CC(C)CCNC(=O)C(c1ccc(O)cc1)N(C(=O)C1COc2ccccc2O1)c1cccc(O)c1 (stereo not drawn) | 28.2 µM [falling, partial curve, poor fit] | 
36 | CCOc1cccc2cc(-c3nnc(NCc4ccco4)s3)c(=O)oc12 | 10 µM [falling, partial curve, poor fit] | 
37 | COc1c(C(=O)NNC(=O)c2ccccc2)csc1Br | 12.6 µM [falling, partial curve, poor fit] | 
38 | Clc1ccccc1-c1nn2c(COc3ccccc3)nnc2s1 | 0.164 µM [rising, full curve] | 
39 | Cc1ccc2nc(Nc3nc(-c4ccccc4)cc(=O)[nH]3)nc(C)c2c1 | 35.5 µM [falling, single point] | 
40 | COc1ccc(C(=O)N(C)Cc2cnn(Cc3ccccc3)c2)cc1S(=O)(=O)N1CCOCC1 | 29.1 µM [rising, single point] | 16.4 µM [falling, partial curve, poor fit]
41 | O=C(Nc1ccc(OC(F)F)c(Cl)c1)c1ccccn1 | 10 µM [falling, single point] | 
42 | Nc1c(Cl)ncnc1N/N=C/c1ccccn1 | 29.1 µM [rising, single point] | 29.1 µM [falling, single point]

Row | Structure (SMILES) | AC50 [1] | AC50 [2]
43 | O=C(NN=C1CCC(=NNC(=O)c2ccccn2)CC1)c1ccccn1 | 15.8 µM [falling, partial curve, poor fit] | 
44 | CCS(=O)(=O)N1CCC(NC(=O)C(Cc2cc(OC)ccc2OC)NC(C)=O)CC1 (stereo not drawn) | 11.2 µM [rising, partial curve, poor fit] | 
45 | COc1ccc(Cl)cc1C(=O)N1CCC2(CC1)CC(=O)c1ccccc1O2 | 8.2 µM [falling, partial curve] | 
46 | CCCC(=O)NC(c1ccccc1Cl)c1c(O)ccc2ccccc12 (stereo not drawn) | 29.1 µM [falling, single point] | 
47 | COc1ccccc1NC(=O)/C=C/C(N)=O | 25.9 µM [falling, partial curve, poor fit] | 18.4 µM [rising, partial curve, poor fit]
48 | CCCNC(=O)c1cccc(Br)c1 | 1 µM [rising, full curve, poor fit] | 
49 | O=C(CN1C(=O)COc2ccccc21)N1CCCc2ccccc21 | 6.51 µM [falling, single point] | 
50 | CCOc1ccc(C(=O)Nc2ccc(S(=O)(=O)NCC3CCCO3)cc2)cc1OCC (stereo not drawn) | 0.447 µM [rising, full curve, poor fit] | 
51 | CCOc1ncccc1C(=O)NCC1COc2ccccc2O1 (stereo not drawn) | 0.1 µM [falling, full curve, poor fit] | 
52 | COc1ccc(C(=O)NCCSC2CCCCC2)cc1 | 16.4 µM [rising, partial curve, poor fit] | 
53 | CC(c1cc2ccccc2s1)N(O)C(N)=O (stereo not drawn) | 15.8 µM [rising, single point] | 
54 | Cc1ccccc1S(=O)(=O)Cc1ccc(C(=O)NCCN(CC(C)C)CC(C)C)o1 | 17.8 µM [falling, single point] | 
55 | CCOc1ccc(NC(=O)CCSc2ccc3ccccc3n2)cc1 | 18.4 µM [rising, single point] | 
56 | COc1ccc(OC)c(CN2CCN(c3ccc(S(=O)(=O)N4CCCC4)cn3)CC2)c1 | 20.6 µM [falling, partial curve, poor fit] | 
57 | CCOC(=O)C1CCN(C(=O)COc2ccc(Br)cc2Br)CC1 | 20 µM [falling, partial curve, poor fit] | 
58 | Fc1ccccc1-c1nc(-c2ccncc2)no1 | 0.112 µM [rising, full curve, poor fit] | 
59 | CN1CCc2c(sc3c2C(=O)NC(c2ccco2)N3)C1 (stereo not drawn) | 2 µM [falling, full curve, poor fit] | 
60 | CC1CC(C)CN(C(=O)c2cccc3c2-c2ccccc2C3=O)C1 (stereo not drawn) | 0.1 µM [rising, full curve, poor fit] | 
61 | Cc1onc(-c2ccccc2)c1C(=O)NNC(=S)NC(=O)c1ccc(F)cc1 | 25.9 µM [falling, single point] | 

From PubChem BioAssay AID493014 (National Center for Advancing Translational Sciences (NCATS), 2011)
